Here are results for one substance from paper PMC6349883.

Protein sequences, listed by entry. Tags and fused reporters are not part of them. Lines headed by an entry give the natural chain unless they say otherwise; changes in a name come on top. Chains listed by the source or under a name are the forms on record and can include a tag or linker.
phage-displayed human Interleukin-2 K35E (P60568, form named): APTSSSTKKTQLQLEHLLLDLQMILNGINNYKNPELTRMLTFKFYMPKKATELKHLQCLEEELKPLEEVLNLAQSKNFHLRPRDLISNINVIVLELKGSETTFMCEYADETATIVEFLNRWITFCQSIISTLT

No constants are given. Whether binding was seen depends on the method and setting. Some entries that bind do so weakly or less than the wild type. Tags and fused reporters may be left off the sequences shown.

In this test the target is T1, mouse CD25 (IL-2R alpha subunit) extracellular region, Fc-fused, coated in the phage ELISA (mouse) (UniProt P01590).
T1 sequence: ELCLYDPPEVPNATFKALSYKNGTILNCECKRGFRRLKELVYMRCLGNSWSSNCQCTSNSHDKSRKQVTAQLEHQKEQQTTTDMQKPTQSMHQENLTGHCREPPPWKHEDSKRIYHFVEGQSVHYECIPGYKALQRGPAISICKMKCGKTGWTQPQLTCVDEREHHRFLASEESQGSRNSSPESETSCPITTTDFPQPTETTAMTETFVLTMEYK
As to the kind of experiment: ELISA; phage ELISA: phages diluted to similar levels of the displayed protein (by Myc1-9E10 reactivity) incubated on polyvinyl chloride microplates coated with CD25 (human/mouse); bound phages detected with anti-M13 mAb conjugated to horseradish peroxidase; only the target purified.

Turning to “phage-displayed human Interleukin-2 K35E (from UniProt P60568 21-153) (ligand)”, the binding entry is reported as “binds”.
